17 compounds from PubChem BioAssay AID192 (DTP/NCI, 2004) can be followed below.

This experiment deals with BDF1 mice, B16 melanoma ip, median survival T/C. Put plainly: NCI In Vivo Anticancer Drug Screen. Data for tumor model B16 Melanoma (intraperitoneal) in B6D2F1 (BDF1) mice. Conditions: T/C endpoint: median survival time, higher T/C = longer survival. A digest of the protocol: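 Transplantable tumor model; survival or tumor size measured; reported as T/C, treated over vehicle control.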

Where [1] appears, read: dose: 12.5 mg/kg/injection, schedule: Q01DX009 (ip), vehicle: saline with Tween-80.
[2] abbreviates: dose: 25.0 mg/kg/injection, schedule: Q01DX009 (ip), vehicle: saline with Tween-80.
[3] abbreviates: dose: 50.0 mg/kg/injection, schedule: Q01DX009 (ip), vehicle: saline with Tween-80.
The mark [4] stands for this setting: dose: 6.25 mg/kg/injection, schedule: Q01DX009 (ip), vehicle: Klucel (hydroxypropylcellulose) (HPC).
The mark [5] stands for this setting: dose: 100.0 mg/kg/injection, schedule: Q01DX009 (ip), vehicle: Klucel (hydroxypropylcellulose) (HPC).
[6] abbreviates: dose: 100.0 mg/kg/injection, schedule: Q01DX009 (ip), vehicle: saline.
Setting [7] is: dose: 200.0 mg/kg/injection, schedule: Q01DX009 (ip), vehicle: saline.
The mark [8] stands for this setting: dose: 400.0 mg/kg/injection, schedule: Q01DX009 (ip), vehicle: saline.
Setting [9] is: dose: 12.5 mg/kg/injection, schedule: Q01DX009 (ip), vehicle: Klucel (hydroxypropylcellulose) (HPC).
Where [10] appears, read: dose: 50.0 mg/kg/injection, schedule: Q01DX009 (ip), vehicle: Klucel (hydroxypropylcellulose) (HPC).
Where [11] appears, read: dose: 50.0 mg/kg/injection, schedule: Q01DX009 (ip), vehicle: saline.

The list shows only some results of the screen, not a fair sample: it is rich in T/C values a quarter to a half above the control, in often repeated tests (any T/C) and in doses without a T/C. Other doses and runs of a compound stand elsewhere. T/C gives the treated animals as a percentage of the vehicle group. Some doses have a count of surviving animals in place of a T/C: the source holds a T/C of zero for them, seemingly a mark for toxic or unscored doses. Some survivor counts are full or nearly so, which does not show that the dose was tolerated: survival well below the control is almost never listed, so the zero probably covers shortened survival too. Survivors were counted at the toxicity check, usually on the fifth day, unless a day is given; later deaths do not show. Schedule codes are those of the source, read here as Q, the interval in days (D) or hours (H), X, the number of doses. Some entries hold several experiments; the results are listed from low to high. Where survival is the endpoint, the PubChem record calls one and a half times the control and up active, and a quarter to a half above the control has no call in these data; cut-offs in other NCI protocols can differ. Some T/C values are followed by the survivors on the day toxicity was checked, most often the fifth; without a count, all were alive then. Signs of the kind (2×) say how often a value occurs here.

For the compound `OC1COC(c2ccccc2)OC1C1OC(c2ccccc2)OC2COC(c3ccccc3)OC21` (stereo not given), the survivor count is 9 of 10 under setting [1], 9 of 10 under setting [2] and 10 of 10 under setting [3].
As to `O=[N+]([O-])c1cc(F)ccc1O`, the survivor count reads like this: under setting [3], 5 of 6; (dose: 100.0 mg/kg/injection, schedule: Q01DX009 (ip), vehicle: saline with Tween-80) 3 of 6.
On to `OC(CCN1CCCCC1)(c1ccccc1)C1CCCC1` (stereo not given), for which the survivor count is listed as 9 of 10 under setting [4] and 8 of 10 under setting [5].
`NC(N)=N/N=C(/c1ccccc1)c1ccc(F)cc1`: the survivor count (dose: 160.0 mg/kg/injection, schedule: Q01DX009 (ip), vehicle: saline) is listed as 1 of 6.
On to `CN1C(=O)C=CC1=O`, for which the survivor count (dose: 8.0 mg/kg/injection, schedule: Q02DX009 (ip), vehicle: saline) is recorded as 0 of 10.
Consider `C1CC[N-]CC1.C1CC[N-]CC1.C1CC[N-]CC1.C1CC[N-]CC1.N#C[S-].N#C[S-].[Ni]`, for which the survivor count (dose: 20.0 mg/kg/injection, schedule: Q01DX009 (ip), vehicle: saline with Tween-80) was 6 of 6.
For the compound `c1ccc([C@H]2CN3CCSC3=N2)cc1`, the T/C is 86 [9 of 10 alive], 96 [9 of 10 alive], 100, 103, 104, 106, 109, 116 % of control (dose: 0.5 mg/kg/injection, schedule: Q01DX009 (ip), vehicle: saline); 95, 95 [9 of 10 alive], 98 (2×), 99 [9 of 10 alive], 105 (2×), 108 % of control (dose: 1.0 mg/kg/injection, schedule: Q01DX009 (ip), vehicle: saline); 90, 91, 95, 96, 102, 103, 109, 118 % of control (dose: 2.0 mg/kg/injection, schedule: Q01DX009 (ip), vehicle: saline); 86 [8 of 10 alive], 92, 94 [9 of 10 alive], 95 [9 of 10 alive], 96, 105, 107, 123 % of control (dose: 4.0 mg/kg/injection, schedule: Q01DX009 (ip), vehicle: saline); 92, 93, 95 [9 of 10 alive], 99, 100 (2×), 103, 131 % of control (dose: 8.0 mg/kg/injection, schedule: Q01DX009 (ip), vehicle: saline). Further, the survivor count is given as 10 of 10 (dose: 0.63 mg/kg/injection, schedule: Q01DX009 (ip), vehicle: saline); 9 of 10 (dose: 1.25 mg/kg/injection, schedule: Q01DX009 (ip), vehicle: saline); 9 of 10 (dose: 2.5 mg/kg/injection, schedule: Q01DX009 (ip), vehicle: saline).
As to `CC(=O)OCC1OC(OC(C)=O)C(NC(=O)N(CCCl)N=O)C(OC(C)=O)C1OC(C)=O` (stereo not given), the T/C was 148 % of control (dose: 1.0 mg/kg/injection, schedule: Q01DX009 (ip), vehicle: Klucel (hydroxypropylcellulose) (HPC)); 143 % of control (dose: 4.0 mg/kg/injection, schedule: Q01DX009 (ip), vehicle: Klucel (hydroxypropylcellulose) (HPC)); 134 % of control (dose: 6.0 mg/kg/injection, schedule: Q01DX009 (ip), vehicle: Klucel (hydroxypropylcellulose) (HPC)). Moreover, the survivor count (dose: 8.0 mg/kg/injection, schedule: Q01DX009 (ip), vehicle: Klucel (hydroxypropylcellulose) (HPC)) was 10 of 10; the survivor count (dose: 12.0 mg/kg/injection, schedule: Q01DX009 (ip), vehicle: Klucel (hydroxypropylcellulose) (HPC)) is 10 of 10; the survivor count (dose: 16.0 mg/kg/injection, schedule: Q01DX009 (ip), vehicle: Klucel (hydroxypropylcellulose) (HPC)) is 10 of 10; the survivor count (dose: 24.0 mg/kg/injection, schedule: Q01DX009 (ip), vehicle: Klucel (hydroxypropylcellulose) (HPC)) was 10 of 10.
For `O=S(=O)(O)O.[O]=[V]`, the survivor count was 10 of 10 (dose: 6.25 mg/kg/injection, schedule: Q01DX009 (ip), vehicle: saline with Tween-80); 6 of 6 under setting [1]; 6 of 6 under setting [2].
Take `CCc1nc(N)nc(N)c1-c1ccc(Cl)cc1`: the survivor count by setting is: (dose: 4.0 mg/kg/injection, schedule: Q06HX012 (ip), vehicle: Klucel (hydroxypropylcellulose) (HPC)) 9 of 10; (dose: 32.0 mg/kg/injection, schedule: Q06HX004 (ip), vehicle: Klucel (hydroxypropylcellulose) (HPC)) 3 of 10; (dose: 32.0 mg/kg/injection, schedule: Q06HX012 (ip), vehicle: Klucel (hydroxypropylcellulose) (HPC)) 6 of 10; (dose: 64.0 mg/kg/injection, schedule: Q01DX001 (ip), vehicle: Klucel (hydroxypropylcellulose) (HPC)) 9 of 10; (dose: 64.0 mg/kg/injection, schedule: Q01DX001 (oral), vehicle: Klucel (hydroxypropylcellulose) (HPC)) 6 of 10; (dose: 64.0 mg/kg/injection, schedule: Q01DX009 (ip), vehicle: Klucel (hydroxypropylcellulose) (HPC)) 7 of 10. Moreover, the survivor count is, setting by setting: (dose: 64.0 mg/kg/injection, schedule: Q01DX009 (oral), vehicle: Klucel (hydroxypropylcellulose) (HPC)) 6 of 10; under setting [6], 0 of 6; (dose: 128.0 mg/kg/injection, schedule: Q01DX001 (ip), vehicle: Klucel (hydroxypropylcellulose) (HPC)) 0 of 10; (dose: 128.0 mg/kg/injection, schedule: Q01DX001 (oral), vehicle: Klucel (hydroxypropylcellulose) (HPC)) 1 of 10; (dose: 128.0 mg/kg/injection, schedule: Q04DX003 (ip), vehicle: Klucel (hydroxypropylcellulose) (HPC)) 2 of 10; (dose: 128.0 mg/kg/injection, schedule: Q08DX002 (ip), vehicle: Klucel (hydroxypropylcellulose) (HPC)) 0 of 10. The survivor count was 0 of 6 under setting [7] and 0 of 6 under setting [8].
`COC12C(COC(=O)NCCO)C3=C(C(=O)C(C)=C(N)C3=O)N1CC1NC12` (stereo not given): the T/C was 131 (2×) and 147 % of control under setting [4]; 159, 166, 167, 189 % of control under setting [9]; 145 % of control (dose: 12.5 mg/kg/injection, schedule: Q01DX009 (ip), vehicle: saline). The survivor count under setting [10] was 10 of 10, the survivor count under setting [11] was 10 of 10 and the survivor count under setting [5] is 8 of 10.
As to `Nc1nc(F)nc2nc[nH]c12`, the survivor count (dose: 40.0 mg/kg/injection, schedule: Q01DX009 (ip), vehicle: Klucel (hydroxypropylcellulose) (HPC)) was 8 of 10 and 10 of 10.
Consider `OC(CCN1CCCC1)(c1ccccc1)C1CCCCC1` (stereo not given), for which the survivor count under setting [9] was 10 of 10.
`O=C1CN=C(c2ccccc2Cl)c2cc(Cl)ccc2N1`: the survivor count (dose: 0.19 mg/kg/injection, schedule: Q01DX009 (ip), vehicle: Klucel (hydroxypropylcellulose) (HPC)) was 10 of 10; the survivor count under setting [4] was 10 of 10; the survivor count under setting [9] is on record as 9 of 10; the survivor count (dose: 25.0 mg/kg/injection, schedule: Q01DX009 (ip), vehicle: Klucel (hydroxypropylcellulose) (HPC)) is recorded as 9 of 10; the survivor count under setting [10] is given as 8 of 10; the survivor count under setting [5] is 10 of 10.
As to `CN(C)CCCN1c2ccccc2CCc2ccc(Cl)cc21`, the T/C (dose: 3.12 mg/kg/injection, schedule: Q01DX009 (ip), vehicle: saline) is 127 % of control. In addition, the survivor count is, setting by setting: under setting [6], 5 of 10; under setting [7], 0 of 10; under setting [8], 0 of 10.
Take `C[C@H]1C(=O)O[C@@H]2CCN3CC=C(COC(=O)[C@](C)(O)[C@@]1(C)O)[C@H]23`: the T/C reads like this: under setting [11], 128 % of control; under setting [6], 133 % of control; under setting [7], 145 % of control.
On to `Cc1ccc(C(=O)[O][Hg][CH2]C2COC([CH2][Hg][O]C(=O)c3ccc(C)cc3)CO2)cc1` (stereo not given), for which the survivor count by setting is: (dose: 3.12 mg/kg/injection, schedule: Q01DX009 (ip), vehicle: Klucel (hydroxypropylcellulose) (HPC)) 10 of 10; under setting [5], 3 of 10 and 5 of 10.
